From patent US20170058314A1, “NOVEL METHODOLOGY FOR IDENTIFYING ANTI-PERSISTER ACTIVITY AND ANTIMICROBIAL SUSCEPTIBILITY FOR BORRELIA BURGDORFERI AND OTHER BACTERIA” (priority 2014, published 2017) come the findings set out here.

Test [1] deals with S. aureus strains (Newman, USA300, CA-409, CA-127, NY-315). In words: Rapid SYBR Green/PI antibiotic susceptibility test. The following applies: 30 minutes; kanamycin 25, ciprofloxacin 50 μg/mL. Format: cell-based, Staphylococcus aureus.
Test [2] relates to round body form of B. burgdorferi. In words: SYBR Green I/PI assay on amoxicillin-induced round body form.

On to `O=C(O)c1cn(C2CC2)c2cc(N3CCNCC3)c(F)cc2c1=O` [Ciprofloxacin], for which, in test [1], the “percent killed, resistant strain CA-127” value amounted to 28%. Besides, in test [2] (Borreliella burgdorferi, 168 h, read-out: Residual viable cells (SYBR Green I/PI assay)), the viability at 50 µM came to 28%. Also, in test [2] (round body form, 50 μM, 7 days), the “Ratios of green/red fluorescence, Primary screening” value is 6.30; the “Ratios of green/red fluorescence, Rescreening (first column)” value is on record as 6.04; the “Ratios of green/red fluorescence, Rescreening (second column)” value was found to be 6.20.
